The list shows a part of the results. Residues, ends and D or L forms follow the SMILES beside them. *: point of attachment. Cbz = O=C(OCc1ccccc1)*
Assays:
Assay in all cases: log2 fold change, soluble protein after heating vs DMSO (PISA); higher = thermal stabilisation; K562 cells, 10 uM, 30 min; active = over 0.2 and 3.5 SD of the protein, either way, in both replicates (recomputed)
[1] = compound: C1COCCN1CCN2C3=CC=CC=C3N=C2NC(=O)C4=CC(=CC=C4)[N+](=O)[O-] [IRAK-1-4 Inhibitor I]
Outline: (§1)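 Soluble protein was defined as the supernatant after 21,000xg for 90 min. It came from K562 cells at 2×10^6 cells/mL given 10 μM compound for 30 min, heated in aliquots for 3 min across 48°C-58°C, pooled, and extracted in PBS with 0.5% NP-40 at 4°C, and was quantified by TMTpro 16plex LC-MS/MS with equalised channel sums. Thermal stability against control samples, from duplicates, is reported as log2 fold change.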

By UniProt entry, the sequences of proteins in these tests, tags left out. Where a name states a change or a piece, a line headed by the entry shows the natural chain unless it says otherwise.
UniProt Q96N66: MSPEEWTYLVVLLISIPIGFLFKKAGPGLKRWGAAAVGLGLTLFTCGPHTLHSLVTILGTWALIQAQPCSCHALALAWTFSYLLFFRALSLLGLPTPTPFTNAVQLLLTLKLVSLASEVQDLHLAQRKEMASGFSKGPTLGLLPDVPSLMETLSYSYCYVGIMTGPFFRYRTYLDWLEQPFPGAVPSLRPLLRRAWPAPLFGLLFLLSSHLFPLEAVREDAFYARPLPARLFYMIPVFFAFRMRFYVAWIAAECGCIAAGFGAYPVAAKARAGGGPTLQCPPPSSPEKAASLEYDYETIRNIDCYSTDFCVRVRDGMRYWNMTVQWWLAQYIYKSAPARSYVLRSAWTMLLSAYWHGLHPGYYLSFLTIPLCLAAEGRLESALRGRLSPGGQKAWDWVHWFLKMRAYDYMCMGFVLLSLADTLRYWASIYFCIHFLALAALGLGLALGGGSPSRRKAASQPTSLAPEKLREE
UniProt Q5JRA6: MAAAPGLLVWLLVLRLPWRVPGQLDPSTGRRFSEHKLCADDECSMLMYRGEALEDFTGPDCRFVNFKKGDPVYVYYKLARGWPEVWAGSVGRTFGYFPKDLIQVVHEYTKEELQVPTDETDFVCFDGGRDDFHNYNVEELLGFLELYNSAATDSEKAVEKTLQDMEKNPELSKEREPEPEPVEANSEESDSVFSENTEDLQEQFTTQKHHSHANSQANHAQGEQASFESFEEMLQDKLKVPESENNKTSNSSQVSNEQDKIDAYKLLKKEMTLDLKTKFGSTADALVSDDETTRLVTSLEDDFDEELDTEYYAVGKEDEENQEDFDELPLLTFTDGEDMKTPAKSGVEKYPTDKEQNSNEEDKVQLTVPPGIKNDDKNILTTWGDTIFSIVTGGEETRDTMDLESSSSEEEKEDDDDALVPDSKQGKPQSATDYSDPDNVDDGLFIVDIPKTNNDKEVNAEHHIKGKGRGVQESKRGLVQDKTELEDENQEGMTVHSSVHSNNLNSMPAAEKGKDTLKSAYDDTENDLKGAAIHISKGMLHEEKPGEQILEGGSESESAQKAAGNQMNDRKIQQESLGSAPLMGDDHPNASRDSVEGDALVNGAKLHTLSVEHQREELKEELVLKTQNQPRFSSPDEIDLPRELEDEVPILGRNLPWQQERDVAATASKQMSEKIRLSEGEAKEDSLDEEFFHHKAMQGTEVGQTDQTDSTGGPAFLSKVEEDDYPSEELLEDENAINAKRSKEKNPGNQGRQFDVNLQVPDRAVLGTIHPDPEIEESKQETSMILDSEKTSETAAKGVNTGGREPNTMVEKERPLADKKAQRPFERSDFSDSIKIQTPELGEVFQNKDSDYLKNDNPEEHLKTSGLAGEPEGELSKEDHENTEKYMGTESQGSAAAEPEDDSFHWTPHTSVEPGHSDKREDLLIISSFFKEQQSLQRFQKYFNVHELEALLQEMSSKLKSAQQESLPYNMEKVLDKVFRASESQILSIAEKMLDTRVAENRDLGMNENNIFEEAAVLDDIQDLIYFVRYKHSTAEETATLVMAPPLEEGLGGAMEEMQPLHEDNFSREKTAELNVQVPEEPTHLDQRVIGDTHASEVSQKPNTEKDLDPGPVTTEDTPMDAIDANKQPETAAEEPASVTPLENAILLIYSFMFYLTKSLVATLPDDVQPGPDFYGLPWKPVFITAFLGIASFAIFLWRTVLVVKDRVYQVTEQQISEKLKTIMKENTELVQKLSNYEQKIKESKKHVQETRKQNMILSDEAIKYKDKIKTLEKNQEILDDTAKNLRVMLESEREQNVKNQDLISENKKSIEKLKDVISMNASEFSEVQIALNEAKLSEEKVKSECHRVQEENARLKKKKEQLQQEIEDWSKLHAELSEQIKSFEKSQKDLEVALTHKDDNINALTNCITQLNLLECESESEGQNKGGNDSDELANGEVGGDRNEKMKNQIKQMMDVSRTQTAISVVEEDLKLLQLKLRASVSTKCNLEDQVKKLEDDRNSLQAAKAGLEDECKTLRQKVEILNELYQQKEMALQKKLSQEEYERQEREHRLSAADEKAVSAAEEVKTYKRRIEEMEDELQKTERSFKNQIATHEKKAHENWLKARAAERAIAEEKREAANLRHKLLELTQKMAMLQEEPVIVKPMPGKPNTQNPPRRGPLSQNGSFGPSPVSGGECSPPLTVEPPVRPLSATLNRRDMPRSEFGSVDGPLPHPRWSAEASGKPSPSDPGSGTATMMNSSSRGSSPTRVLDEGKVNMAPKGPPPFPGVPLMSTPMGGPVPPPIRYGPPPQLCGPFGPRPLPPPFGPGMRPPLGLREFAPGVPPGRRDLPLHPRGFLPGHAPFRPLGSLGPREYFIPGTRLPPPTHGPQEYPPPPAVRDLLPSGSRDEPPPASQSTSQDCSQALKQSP
UniProt Q96G25: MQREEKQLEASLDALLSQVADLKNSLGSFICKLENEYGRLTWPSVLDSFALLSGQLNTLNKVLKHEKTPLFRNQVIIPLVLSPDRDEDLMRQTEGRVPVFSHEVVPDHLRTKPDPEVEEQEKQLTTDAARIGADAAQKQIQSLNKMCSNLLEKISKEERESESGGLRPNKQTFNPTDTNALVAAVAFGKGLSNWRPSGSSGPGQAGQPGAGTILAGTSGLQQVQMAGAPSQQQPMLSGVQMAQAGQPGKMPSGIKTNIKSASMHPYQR
UniProt P25205: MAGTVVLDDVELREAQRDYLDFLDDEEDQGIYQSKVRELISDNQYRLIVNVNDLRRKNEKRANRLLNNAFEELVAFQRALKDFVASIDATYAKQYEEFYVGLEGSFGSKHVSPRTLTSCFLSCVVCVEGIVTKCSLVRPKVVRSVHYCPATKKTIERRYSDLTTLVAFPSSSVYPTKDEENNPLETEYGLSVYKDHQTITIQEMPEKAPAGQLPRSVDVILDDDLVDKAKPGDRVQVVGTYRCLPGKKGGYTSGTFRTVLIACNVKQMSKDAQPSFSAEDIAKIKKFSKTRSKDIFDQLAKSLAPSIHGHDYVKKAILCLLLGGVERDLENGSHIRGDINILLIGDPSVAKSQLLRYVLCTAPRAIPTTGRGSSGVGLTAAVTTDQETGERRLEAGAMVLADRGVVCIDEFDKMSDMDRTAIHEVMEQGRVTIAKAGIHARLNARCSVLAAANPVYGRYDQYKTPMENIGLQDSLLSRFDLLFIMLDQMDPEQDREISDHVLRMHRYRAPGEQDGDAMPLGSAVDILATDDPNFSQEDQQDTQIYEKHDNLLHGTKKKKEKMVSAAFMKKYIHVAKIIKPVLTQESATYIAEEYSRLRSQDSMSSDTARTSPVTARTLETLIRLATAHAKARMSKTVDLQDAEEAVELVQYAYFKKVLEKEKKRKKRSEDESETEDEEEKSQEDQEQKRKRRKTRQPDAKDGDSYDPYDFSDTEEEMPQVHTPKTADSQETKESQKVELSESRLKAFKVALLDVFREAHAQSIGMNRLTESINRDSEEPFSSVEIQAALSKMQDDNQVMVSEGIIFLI
UniProt Q9ULC4: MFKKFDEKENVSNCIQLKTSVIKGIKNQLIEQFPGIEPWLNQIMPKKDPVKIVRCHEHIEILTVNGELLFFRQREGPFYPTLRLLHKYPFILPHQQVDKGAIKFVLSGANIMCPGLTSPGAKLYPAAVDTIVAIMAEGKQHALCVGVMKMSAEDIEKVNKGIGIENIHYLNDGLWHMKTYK
UniProt Q6ZWT7: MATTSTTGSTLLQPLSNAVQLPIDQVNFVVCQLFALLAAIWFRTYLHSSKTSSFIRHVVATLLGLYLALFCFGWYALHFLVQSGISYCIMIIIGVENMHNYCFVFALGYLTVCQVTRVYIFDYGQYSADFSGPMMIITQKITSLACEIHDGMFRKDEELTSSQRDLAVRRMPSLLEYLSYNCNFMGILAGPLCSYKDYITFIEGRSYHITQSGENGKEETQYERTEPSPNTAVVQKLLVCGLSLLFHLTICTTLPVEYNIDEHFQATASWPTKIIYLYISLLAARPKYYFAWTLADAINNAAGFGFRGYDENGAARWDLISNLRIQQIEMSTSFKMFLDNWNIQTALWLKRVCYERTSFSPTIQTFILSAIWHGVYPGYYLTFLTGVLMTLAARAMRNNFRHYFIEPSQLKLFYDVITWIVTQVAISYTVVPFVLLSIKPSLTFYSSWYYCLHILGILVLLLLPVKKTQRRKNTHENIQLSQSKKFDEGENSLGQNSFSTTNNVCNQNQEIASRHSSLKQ
UniProt O95983: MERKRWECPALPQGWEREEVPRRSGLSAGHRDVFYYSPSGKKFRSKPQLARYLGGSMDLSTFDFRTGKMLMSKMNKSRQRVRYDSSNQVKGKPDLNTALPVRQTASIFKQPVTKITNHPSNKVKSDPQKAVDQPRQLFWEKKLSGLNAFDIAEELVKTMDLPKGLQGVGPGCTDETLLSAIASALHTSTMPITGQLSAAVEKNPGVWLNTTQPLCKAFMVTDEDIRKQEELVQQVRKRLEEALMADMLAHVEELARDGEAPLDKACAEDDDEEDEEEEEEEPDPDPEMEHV
UniProt Q8NI22: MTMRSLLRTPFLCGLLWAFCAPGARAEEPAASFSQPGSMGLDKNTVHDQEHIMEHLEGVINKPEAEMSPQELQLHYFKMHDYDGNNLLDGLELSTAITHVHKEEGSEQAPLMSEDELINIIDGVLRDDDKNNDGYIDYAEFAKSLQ
UniProt P50579: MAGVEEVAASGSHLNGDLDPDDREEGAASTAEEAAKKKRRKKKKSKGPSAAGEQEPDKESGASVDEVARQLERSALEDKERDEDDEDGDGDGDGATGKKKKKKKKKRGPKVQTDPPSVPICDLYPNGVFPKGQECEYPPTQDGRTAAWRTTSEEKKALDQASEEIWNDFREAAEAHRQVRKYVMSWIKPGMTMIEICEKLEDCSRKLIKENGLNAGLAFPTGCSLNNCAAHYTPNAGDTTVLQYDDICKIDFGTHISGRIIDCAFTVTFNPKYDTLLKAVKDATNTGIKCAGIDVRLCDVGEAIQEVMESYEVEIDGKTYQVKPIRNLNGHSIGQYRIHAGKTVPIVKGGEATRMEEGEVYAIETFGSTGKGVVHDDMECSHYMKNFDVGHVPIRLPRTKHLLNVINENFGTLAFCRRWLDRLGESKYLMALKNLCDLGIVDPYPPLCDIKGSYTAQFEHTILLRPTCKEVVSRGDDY
UniProt Q14703: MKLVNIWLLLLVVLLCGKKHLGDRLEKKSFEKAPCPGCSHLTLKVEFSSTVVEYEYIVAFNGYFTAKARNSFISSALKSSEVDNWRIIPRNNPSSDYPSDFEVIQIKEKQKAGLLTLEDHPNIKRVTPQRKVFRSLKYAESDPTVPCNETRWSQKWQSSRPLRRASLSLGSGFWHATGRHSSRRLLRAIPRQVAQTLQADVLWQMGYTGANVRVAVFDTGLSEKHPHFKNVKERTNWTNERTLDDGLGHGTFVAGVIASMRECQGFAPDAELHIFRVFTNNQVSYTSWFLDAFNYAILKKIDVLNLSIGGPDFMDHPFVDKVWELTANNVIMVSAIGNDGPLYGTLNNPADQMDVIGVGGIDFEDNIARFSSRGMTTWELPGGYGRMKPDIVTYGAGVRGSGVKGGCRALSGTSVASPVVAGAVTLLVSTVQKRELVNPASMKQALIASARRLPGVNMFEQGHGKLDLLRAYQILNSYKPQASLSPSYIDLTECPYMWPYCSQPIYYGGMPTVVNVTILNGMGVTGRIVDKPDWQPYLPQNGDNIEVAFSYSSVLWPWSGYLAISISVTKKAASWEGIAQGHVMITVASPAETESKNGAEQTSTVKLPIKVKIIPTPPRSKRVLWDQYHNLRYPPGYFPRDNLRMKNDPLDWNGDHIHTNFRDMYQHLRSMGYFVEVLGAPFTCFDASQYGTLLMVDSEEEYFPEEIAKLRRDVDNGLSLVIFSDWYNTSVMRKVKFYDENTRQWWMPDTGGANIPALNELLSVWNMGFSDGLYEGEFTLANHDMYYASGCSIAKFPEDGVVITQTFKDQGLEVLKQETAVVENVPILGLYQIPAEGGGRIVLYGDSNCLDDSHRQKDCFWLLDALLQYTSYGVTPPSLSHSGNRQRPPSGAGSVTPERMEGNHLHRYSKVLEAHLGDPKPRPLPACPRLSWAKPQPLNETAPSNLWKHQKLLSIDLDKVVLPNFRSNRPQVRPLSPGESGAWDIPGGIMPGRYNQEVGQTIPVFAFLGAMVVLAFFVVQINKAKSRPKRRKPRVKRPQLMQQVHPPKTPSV
UniProt P56270: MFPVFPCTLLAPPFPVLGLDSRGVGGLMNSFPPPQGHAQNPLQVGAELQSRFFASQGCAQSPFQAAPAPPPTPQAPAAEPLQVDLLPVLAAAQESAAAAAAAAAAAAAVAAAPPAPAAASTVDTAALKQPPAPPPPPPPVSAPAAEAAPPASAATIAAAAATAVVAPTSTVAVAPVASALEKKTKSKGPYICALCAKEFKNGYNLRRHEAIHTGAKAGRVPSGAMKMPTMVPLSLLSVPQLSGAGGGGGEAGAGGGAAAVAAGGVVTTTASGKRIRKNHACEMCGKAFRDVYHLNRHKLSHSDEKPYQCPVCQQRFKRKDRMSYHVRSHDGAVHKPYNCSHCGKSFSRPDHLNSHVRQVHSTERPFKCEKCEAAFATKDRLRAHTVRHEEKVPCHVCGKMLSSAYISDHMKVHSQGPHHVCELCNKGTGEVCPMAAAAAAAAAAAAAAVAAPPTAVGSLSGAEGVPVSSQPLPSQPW

[2] = compound: C=CC(=O)N1CCC[C@@H](n2nc(-c3ccc(Oc4ccccc4)cc3)c3c(N)ncnc32)C1 [ibrutinib]
Outline: as §1

[3] = compound: CC(=O)c1cnc2ccc(-c3cc(Cl)c(O)c(Cl)c3)nc2c1N[C@H]1CC[C@H](CN(C)C)CC1
Outline: as §1

[4] = compound: CC(C)(C)Cn1c(N)nc2ccc(-c3[nH]c(C(C)(C)C)nc3-c3ccc(F)cc3)nc21 [ralimetinib]
Outline: as §1

[5] = compound: CC(C)(O)CC(=O)NCCn1ccc2ncnc(Nc3ccc(Oc4cccc(C(F)(F)F)c4)c(Cl)c3)c21
Outline: as §1

[6] = compound: CC(C)C1=C2N=C(C=C(N2N=C1)NCC3=CC=CC=C3)NCCCCCCN
Outline: as §1

[7] = compound: CC(C)C[C@@H](C=O)NC(=O)[C@H](CC(C)C)NC(=O)[C@H](CC(C)C)NC(=O)OCc1ccccc1
Outline: as §1

[8] = compound: CC(C)N(C[C@H]1O[C@@H](n2cnc3c(N)ncnc32)[C@H](O)[C@@H]1O)[C@H]1C[C@@H](CCc2nc3cc(C(C)(C)C)ccc3[nH]2)C1 [pinometostat]
Outline: as §1

[9] = compound: CC1=C(C(CC(=O)N1)C2=CC=C(C=C2)C(F)(F)F)C(=O)NC3=C(C=C4C(=C3)C=NN4)F
Outline: as §1

[10] = compound: CC1=C(C2=C(C=C1)C(=O)C3=CC=CC=C3N2CCCN)C
Outline: as §1

Measured: log2 fold change

MGST2 (UniProt Q99735)
inactive: [1] 0.067 | [2] 0.032 | [3] 0.019 | [4] -0.052 | [5] 0.093 | [6] 0.049 | [7] 0.005 | [8] 0.015 | [9] 0.03 | [10] 0.067

MBOAT7 (UniProt Q96N66)
inactive: [1] 0 | [2] 0.008 | [3] 0.041 | [4] -0.068 | [5] 0 | [6] 0.041 | [7] -0.06 | [8] -0.025 | [9] 0.006 | [10] 0.033

MIA3 (UniProt Q5JRA6)
inactive: [1] -0.008 | [2] -0.043 | [3] -0.043 | [4] 0 | [5] 0.027 | [6] -0.019 | [7] 0.046 | [8] 0.039 | [9] 0.045 | [10] -0.031

MAVS (UniProt Q7Z434)
inactive: [1] -0.011 | [2] 0.002 | [3] -0.018 | [4] 0.013 | [5] -0.027 | [6] 0.011 | [7] -0.057 | [8] -0.093 | [9] -0.031 | [10] 0.022

METAP1 (UniProt P53582)
inactive: [1] 0.001 | [2] 0.043 | [3] 0.042 | [4] -0.019 | [5] -0.001 | [6] 0.204 | [7] -0.024 | [8] -0.014 | [9] 0.031 | [10] 0.087

MGME1 (UniProt Q9BQP7)
inactive: [1] 0.058 | [2] 0.024 | [3] 0.025 | [4] -0.009 | [5] -0.009 | [6] -0.052 | [7] -0.002 | [8] -0.004 | [9] -0.001 | [10] -0.029

MED8 isoform 2 (UniProt Q96G25)
inactive: [1] -0.051 | [2] 0.038 | [3] -0.216 | [4] -0.013 | [5] -0.081 | [6] 0.05 | [7] 0.06 | [8] -0.043

MCM3 isoform 2 (UniProt P25205)
inactive: [1] 0.007 | [2] 0.019 | [3] -0.035 | [4] -0.014 | [5] -0.009 | [6] 0.001 | [7] -0.015 | [8] -0.02 | [9] 0.019 | [10] 0.029

Copied from the entries so far (seven entries):
MGST2 (UniProt Q99735)
inactive: [1] 0.067 | [2] 0.032 | [3] 0.019 | [4] -0.052 | [5] 0.093 | [6] 0.049 | [7] 0.005 | [8] 0.015 | [9] 0.03 | [10] 0.067

MBOAT7 (UniProt Q96N66)
inactive: [1] 0 | [2] 0.008 | [3] 0.041 | [4] -0.068 | [5] 0 | [6] 0.041 | [7] -0.06 | [8] -0.025 | [9] 0.006 | [10] 0.033

MIA3 (UniProt Q5JRA6)
inactive: [1] -0.008 | [2] -0.043 | [3] -0.043 | [4] 0 | [5] 0.027 | [6] -0.019 | [7] 0.046 | [8] 0.039 | [9] 0.045 | [10] -0.031

MAVS (UniProt Q7Z434)
inactive: [1] -0.011 | [2] 0.002 | [3] -0.018 | [4] 0.013 | [5] -0.027 | [6] 0.011 | [7] -0.057 | [8] -0.093 | [9] -0.031 | [10] 0.022

METAP1 (UniProt P53582)
inactive: [1] 0.001 | [2] 0.043 | [3] 0.042 | [4] -0.019 | [5] -0.001 | [6] 0.204 | [7] -0.024 | [8] -0.014 | [9] 0.031 | [10] 0.087

MGME1 (UniProt Q9BQP7)
inactive: [1] 0.058 | [2] 0.024 | [3] 0.025 | [4] -0.009 | [5] -0.009 | [6] -0.052 | [7] -0.002 | [8] -0.004 | [9] -0.001 | [10] -0.029

MED8 isoform 2 (UniProt Q96G25)
inactive: [1] -0.051 | [2] 0.038 | [3] -0.216 | [4] -0.013 | [5] -0.081 | [6] 0.05 | [7] 0.06 | [8] -0.043

Going on with the list:

MCM2 (UniProt P49736)
inactive: [1] 0.018 | [2] -0.027 | [3] -0.026 | [4] -0.035 | [5] -0.066 | [6] -0.088 | [7] -0.013 | [8] -0.028 | [9] 0.002 | [10] -0.047

MCMBP (UniProt Q9BTE3)
inactive: [1] -0.007 | [2] -0.059 | [3] -0.042 | [4] -0.003 | [5] -0.102 | [6] -0.039 | [7] 0.051 | [8] -0.036 | [9] -0.048 | [10] 0.181

MCCC1 (UniProt Q96RQ3)
inactive: [1] 0.038 | [2] 0 | [3] -0.079 | [4] -0.037 | [5] -0.128 | [6] 0.044 | [7] 0.005 | [8] -0.054 | [9] 0.006 | [10] 0.1

MCTS1 isoform 3 (UniProt Q9ULC4)
inactive: [1] 0.022 | [2] 0.025 | [3] 0.003 | [4] -0.018 | [5] 0 | [6] 0.05 | [7] -0.021 | [8] -0.037 | [9] 0.038 | [10] -0.042

MBOAT2 (UniProt Q6ZWT7)
inactive: [1] 0.018 | [2] -0.015 | [3] -0.023 | [4] 0.003 | [5] 0.026 | [6] 0.026 | [7] -0.061 | [8] 0.052 | [9] 0.009 | [10] 0.045

MBD3 (UniProt O95983)
inactive: [1] 0.009 | [2] 0.047 | [3] -0.05 | [4] 0.05 | [5] 0.023 | [6] -0.082 | [7] -0.041 | [8] 0.057 | [9] 0.103 | [10] -0.085

MCFD2 (UniProt Q8NI22)
inactive: [1] 0.084 | [2] -0.065 | [3] -0.022 | [4] -0.112 | [5] -0.294 | [6] 0.085 | [7] -0.154 | [8] -0.033 | [9] 0.061 | [10] 0.323

MED23 (UniProt Q9ULK4)
inactive: [1] -0.146 | [2] -0.03 | [3] -0.127 | [4] -0.002 | [5] -0.162 | [6] -0.168 | [7] 0.092 | [8] 0.061 | [9] -0.125 | [10] 0.086

MFSD10 (UniProt Q14728)
inactive: [1] -0.031 | [2] 0.026 | [3] 0.005 | [4] -0.043 | [5] 0.024 | [6] -0.016 | [7] -0.011 | [8] 0.049 | [9] -0.091 | [10] 0.067

METAP2 (UniProt P50579)
inactive: [1] 0.023 | [2] 0.048 | [3] 0.026 | [4] 0.028 | [5] 0.01 | [6] 0.039 | [7] -0.025 | [8] 0.014 | [9] 0.01 | [10] -0.045

MEF2D (UniProt Q14814)
inactive: [1] 0 | [2] -0.057 | [3] -0.056 | [4] -0.05 | [5] -0.003 | [6] 0.008 | [7] 0.028 | [8] -0.007 | [9] -0.003 | [10] 0.027

MAT2A (UniProt P31153)
inactive: [1] 0.058 | [2] -0.004 | [3] 0.004 | [4] -0.068 | [5] 0.017 | [6] 0.062 | [7] 0.009 | [8] -0.003 | [9] -0.002 | [10] -0.027

MCAT (UniProt Q8IVS2)
inactive: [1] -0.131 | [2] 0.007 | [3] -0.001 | [4] 0.038 | [5] 0.103 | [6] -0.028 | [7] 0.018 | [8] 0.038 | [9] 0.026 | [10] 0.091

MEA1 (UniProt Q16626)
inactive: [1] 0.03 | [2] 0.107 | [3] -0.274 | [4] -0.113 | [5] 0.029 | [6] 0.045 | [7] 0.108 | [8] -0.02 | [9] -0.001 | [10] -0.119

MBTPS1 (UniProt Q14703)
inactive: [1] -0.05 | [2] -0.262 | [3] -0.069 | [4] 0.095 | [5] 0.012 | [6] 0.001 | [7] 0.13 | [8] 0.043 | [9] -0.037 | [10] 0.018

MAZ isoform 2 (UniProt P56270)
inactive: [1] -0.085 | [2] 0.062 | [3] 0.061 | [4] 0.188 | [5] 0.059 | [6] 0.04 | [7] 0.1 | [8] 0.177 | [9] -0.006 | [10] -0.247

MEF2C isoform 5 (UniProt Q06413)
inactive: [1] 0.029 | [2] -0.109 | [3] 0.029 | [4] -0.018 | [5] 0.031 | [6] 0.002 | [7] 0.081 | [8] 0.023 | [9] -0.127 | [10] -0.17

MBOAT1 (UniProt Q6ZNC8)
inactive: [1] 0.016 | [2] -0.2 | [3] 0.064 | [4] -0.104 | [5] -0.034 | [6] -0.177 | [7] 0.089 | [8] -0.002 | [9] -0.047 | [10] 0.018

MCM7 (UniProt P33993)
inactive: [1] 0.012 | [2] -0.009 | [3] -0.03 | [4] -0.007 | [5] -0.027 | [6] -0.082 | [7] -0.022 | [8] -0.031 | [9] 0.01 | [10] -0.019

MECP2 isoform 2 (UniProt P51608)
inactive: [1] -0.06 | [2] 0.039 | [3] 0.111 | [4] 0.154 | [5] 0 | [6] -0.009 | [7] 0.041 | [8] 0.286 | [9] 0.008 | [10] -0.416

MED4 (UniProt Q9NPJ6)
inactive: [1] -0.039 | [2] 0.009 | [3] -0.112 | [4] 0 | [5] 0.043 | [6] -0.032 | [7] 0.079 | [8] 0 | [9] 0.063 | [10] 0.036

MAX (UniProt P61244)
inactive: [1] 0.032 | [2] 0.024 | [3] -0.185 | [4] -0.044 | [5] 0.132 | [6] 0.157 | [7] 0.026 | [8] -0.06 | [9] 0.016 | [10] 0.099

Reference: the supplement of paper PMC10849652
